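Luminescence from an EWS-FLI1 target-promoter (NR0B1) reporter, set against a CMV-promoter reporter, two days after silencing single genes in TC32 Ewing sarcoma cells. Each siRNA was applied at 20 nM. A z-score of the log NR0B1-over-CMV signal, less the median of siRNAs with the same seed; more negative means a stronger specific loss of the NR0B1 reporter.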

The strongest results of the screen are mostly left out here. Sequences are the guide (antisense) strand, without overhang.

Sequence | gene | seed-corrected z-score
AAAGGCAUACUCAAUCUUC | CIB4 | 0.7804
UCCACGUUAAGAAUCGUUC | NARS | -0.4284
UAAUCGCUGUGCAAUAACC | DLAT | 0.638
UAAGAUAUGUGAUCUGGUG | PRCC | 0.9361
UGUUGAGAAACUGUAGUUG | EYA3 | 0.03225
AAUUGAACCCAUUCGGCUG | KBTBD7 | -0.2817
UCCGUUUGCAUAAUCUGGA | CSNK1G2-AS1 | 0.4324
UCAUUGACCAGGCUCUCGU | FBXL22 | 0.4314
UGAACUCCCAGGAAUAUGC | ANKDD1A | -0.8513
UGGUCAUCGACAUCAUUGC | CDK5 | 1.033
UCUUCAACUACCGAUAUUG | MIA3 | -0.5507
UACUCAAUCCUCUUGGUCC | CLSTN2 | -0.3623
UUUGGUUUAGGCCUCGUGG | KRBA1 | 0.626
UAUUAGACACCUGGAUAGC | RIMKLB | -0.3398
AGAUUAUCCAGAAAAGUCU | ANO7 | 0.9278
UGUUAAAUCUGAGACAUCC | TAF11 | 0.8276
UCACUAAACUGACUCCAGC | BCL2L1 | 0.1567
AAUUUCGAAAAUCUCGUUC | CCDC146 | -1.127
UCCCUGUAGCGAGAUCUGC | SRSF8 | 0.1697
AUGAUAUCAUCUUUAGUCC | SAMM50 | 0.5622
UUUCUCUCCAGUGCGAAUU | ZNF43 | 0.8125
UCACGGGAUAGAAUUUCGC | EMP2 | 1.084
AACUCCUUAAACGUGGUCC | TCERG1L | 0.8323
UUCGUAGGCAUCACUAUCC | F11R | -0.07289
UACUCGUAAAAUGUACUCG | CXADR | -0.7169
AAACUUUCGAAAAAGUGCC | TIMELESS | -0.6658
UUCCAGAACUAUUACGUUG | IL2 | -0.4088
AUGCGAAUGAACCAUCACC | ZMIZ2 | 0.02223
AUAAGAACAGGCUAGUUUC | OR14J1 | 1.7
UUGAGGGAAACGCGCAUGC | LOC645321 | -0.5095
UUAAGGCCUCUUGUAACCG | RYR1 | 0.1242
UCUUUAUGCCCAGCAAAGC | TMEM139 | -1.11
UAUUUGAUUAGGGAAGUUU | ERICH1-AS1 | -1.114
UUAUAUACGAUGUACCAGG | GAS1 | -0.561
AUUGCUAAGAACACUAUCC | PTX3 | 0.3734
AUCCCUCCAAACGAGGUUC | LINC00634 | 0.107
AGUUGUUCUAGAUCACUGG | SLC30A9 | 1.095
UCAUCGAUGACUGACACCG | ATP6V0D1 | 0.2178
UGAACUGUAACUAAAGCAC | ZNF806 | -1.487
UGAGGAACAGCAGAUGACA | MYRF | -0.6878
UUCAUAAUUCCCAUGUUGC | SP1 | 1.206
UGCUUCAUUAGUGGGCUCU | CHRM4 | -1.35
UCUUCUACAAACGAGGAGC | SLIT3 | -0.5372
UGCACAACCAUCUACAUGC | CNOT6L | 0.3649
UAAACGAUUUGGUUCAGAG | DPP8 | -0.4578
UGUAGGUAUAGGGAUAGUG | AGBL1 | -0.5433
AUUGCUACUAAAGAUCUCG | ZNF534 | 0.1588
AUAGGUGUGAAUCUGAACC | FKBP9 | -0.5094
ACAGUGAAAAAGUGCCGGG | SFXN3 | 0.7294
UUUACUACUCUUCACAUCC | ARAP2 | -0.8357
UUAGCAACUUCCGUGUAGC | DNAH2 | 0.6186
AUUCUGACCACCCAGACCU | TCTA | 0.524
UGUGCUAUGUAACCCACCC | CLDN19 | 0.6179
UUAGGUAAUCUGCUCCAGC | ZNF280C | 0.1438
UAGGAAGCUCCAACGAUGA | LINC01257 | 0.0983
UUCUUGGUUGCCGCUAUGG | MGAT4A | -0.03078
UAAGUUAAUAUCGGGAUCU | C14orf159 | 0.27
UUGGUAUUUUCCUCUGAUC | WNT16 | 1.094
UAAGGAUACAGAUGAUGCG | GDI1 | 0.8218
UGUCUUGUCAGUUUCAAUC | DLST | -0.6816
UCUGAUGUAAGUUAAGUUG | ZNF461 | -0.5358
UGUCCUUACAGCUAAACUC | ACOX2 | -0.2148
UUUUGGAAAUGUCUCAUGU | LOC388942 | 0.3104
UAGGUUUCCUCGGACAGCA | MIP | -0.7544
UGUAAAACCAGGCAACAUG | PEX10 | -0.08133
UAUCUGAACCAUGGUAGCC | ARSI | 0.04498
UGUUAAACCAUUGAAAAUG | TFF2 | 0.101
UUGUUGAUCUGUUAAUGCC | TOMM70A | -0.4116
UUACAGCACACCAUUAACA | FAM19A4 | 0.1015
UGUCCGUUGACUCUGAAGC | MICB | -0.2898
UCUGUUAUCGCUUAGUUCA | ANP32A | 0.2835
AAAGUUUGCGAUUAUCUGC | MDFIC | -0.4618
UUCGGUACAGGUAAUCAAC | INPP5B | 0.3097
UUUCUGGUGACAAUAGUGC | MARK4 | -0.2311
UCUAUCUUCUGGAUCAUUG | MGAT4C | 1.027
AAAUUUACAGAAUAGAGUG | MAGEA12 | 1.627
ACAGUAGCCAGAACCAGGG | DLK2 | -0.3072
UCAUUCUGAGCAAUCUUCC | ACSS2 | 0.7078
UUUCCAACAUAUGUAUUCC | UPP2 | 0.9292
UUCCCGAAGAAAGCUGUCC | SULF2 | -0.711

5 of the entries, repeated:

* UGUCCUUACAGCUAAACUC against ACOX2 | seed-corrected z-score -0.2148
* UGCUUCAUUAGUGGGCUCU against CHRM4 | seed-corrected z-score -1.35
* UGAACUGUAACUAAAGCAC against ZNF806 | seed-corrected z-score -1.487
* UAGGAAGCUCCAACGAUGA against LINC01257 | seed-corrected z-score 0.0983
* UUCGGUACAGGUAAUCAAC against INPP5B | seed-corrected z-score 0.3097

The results are deposited in PubChem (AID1159506; NCATS, 2015).